Measurements: patent US20210340217A1, “NOVEL PEPTIDES AND COMBINATION OF PEPTIDES FOR USE IN IMMUNOTHERAPY AGAINST OVARIAN CANCER AND OTHER CANCERS” (Immatics Biotechnologies GmbH, priority 2017, published 2021)

System: ovarian cancer tissue samples
Test: Identification of tumor associated peptides presented on the cell surface (HLA immunoprecipitation, LC-MS); presentation across tumor types
Design: species or system human
Details: tumor types on which the peptide was found presented (HLA immunoprecipitation, LC-MS); abbreviations in table footnote

65 (TMFLRETSL; listed as Homo sapiens) [compound 65]
Peptide Presentation on tumor types: MEL, NHL, NSCLC, PRCA, SCLC

36 (APAAWLRSA; listed as Homo sapiens) [compound 36]
Peptide Presentation on tumor types: BRCA, CCC, CRC, GBC, GC, HCC, HNSCC, NSCLC, OSCAR, PACA, SCLC, UBC, UEC

151 (HLLLKVLAF; listed as Homo sapiens) [compound 151]
Peptide Presentation on tumor types: HNSCC

29 (QQFLTALFY; listed as Homo sapiens) [compound 29]
Peptide Presentation on tumor types: PACA, PRCA

423 (SEVPTGTTA; listed as Homo sapiens) [compound 423]
Peptide Presentation on tumor types: GBC, GBM

259 (KTLELRVAY; listed as Homo sapiens) [compound 259]
Peptide Presentation on tumor types: GBC, HNSCC

507 (TSIFSGQSL; listed as Homo sapiens) [compound 507]
Peptide Presentation on tumor types: UEC

99 (KVVDRWNEK; listed as Homo sapiens) [compound 99]
Peptide Presentation on tumor types: CRC, NHL, RCC

300 (IPMAAVKQAL; listed as Homo sapiens) [compound 300]
Peptide Presentation on tumor types: AML, BRCA, CLL, CRC, GC, HCC, HNSCC, MEL, NSCLC, OSCAR, PACA, RCC, UEC

271 (RMFADDLHNLNK; listed as Homo sapiens) [compound 271]
Peptide Presentation on tumor types: NSCLC

509 (GRGPGGVSW; listed as Homo sapiens) [compound 509]
Peptide Presentation on tumor types: NSCLC

488 (RSFSLGVPR; listed as Homo sapiens) [compound 488]
Peptide Presentation on tumor types: AML, CLL, GC, HCC, HNSCC, NHL, NSCLC, PRCA, SCLC, UEC

8 (YLVTKVVAV; listed as Homo sapiens) [compound 8]
Peptide Presentation on tumor types: AML, BRCA, CCC, CLL, CRC, GBC, GBM, GC, GEJC, HCC, HNSCC, MEL, NHL, NSCLC, OSCAR, PACA, PRCA, RCC, SCLC, UBC, UEC

11 (SYSDLHYGF; listed as Homo sapiens) [compound 11]
Peptide Presentation on tumor types: GC, NSCLC, UEC

405 (NEIWTHSY; listed as Homo sapiens) [compound 405]
Peptide Presentation on tumor types: NSCLC, UEC

110 (SAAPPSYFR; listed as Homo sapiens) [compound 110]
Peptide Presentation on tumor types: RCC, UEC

86 (VVLLGSLFSRK; listed as Homo sapiens) [compound 86]
Peptide Presentation on tumor types: AML, CRC, GC, HCC, PACA, RCC

695 (RGSLLSEADVRALG; listed as Homo sapiens) [compound 695]
Peptide Presentation on tumor types: NSCLC

275 (STTFPTLTK; listed as Homo sapiens) [compound 275]
Peptide Presentation on tumor types: UEC

619 (VAEVQKLLGPHVE; listed as Homo sapiens) [compound 619]
Peptide Presentation on tumor types: NSCLC

436 (REPGDIFSEL; listed as Homo sapiens) [compound 436]
Peptide Presentation on tumor types: CRC

615 (VAEVQKLLGPHVEGLK; listed as Homo sapiens) [compound 615]
Peptide Presentation on tumor types: NSCLC

389 (SPGAQRTFFQL; listed as Homo sapiens) [compound 389]
Peptide Presentation on tumor types: AML, MEL

646 (GLLPVLGQPIIRSIPQGIVAAWRQ; listed as Homo sapiens) [compound 646]
Peptide Presentation on tumor types: NSCLC

544 (LRNPSIQKL; listed as Homo sapiens) [compound 544]
Peptide Presentation on tumor types: GBM

280 (SVSGVKTTF; listed as Homo sapiens) [compound 280]
Peptide Presentation on tumor types: HCC, UEC

442 (ILSKLTDIQY; listed as Homo sapiens) [compound 442]
Peptide Presentation on tumor types: BRCA, GBM, NHL, NSCLC

639 (ALRGLLPVLGQPII; listed as Homo sapiens) [compound 639]
Peptide Presentation on tumor types: NSCLC

59 (SENVTMKVV; listed as Homo sapiens) [compound 59]
Peptide Presentation on tumor types: UEC

388 (SPAPLKLSRTPA; listed as Homo sapiens) [compound 388]
Peptide Presentation on tumor types: MEL

527 (QSTPYVNSV; listed as Homo sapiens) [compound 527]
Peptide Presentation on tumor types: UEC

430 (DEKILYPEF; listed as Homo sapiens) [compound 430]
Peptide Presentation on tumor types: UEC

446 (GRIVAFFSF; listed as Homo sapiens) [compound 446]
Peptide Presentation on tumor types: AML, BRCA, CRC, HCC, HNSCC, MEL, NHL, NSCLC, OSCAR, PACA, PRCA, SCLC, UBC, UEC

319 (SPAEPSVYATL; listed as Homo sapiens) [compound 319]
Peptide Presentation on tumor types: BRCA, GC, NSCLC, OSCAR

22 (SLKERNPLK; listed as Homo sapiens) [compound 22]
Peptide Presentation on tumor types: NSCLC

629 (GLLPVLGQPIIRSIPQGIVA; listed as Homo sapiens) [compound 629]
Peptide Presentation on tumor types: NSCLC

75 (KVVSVLYNV; listed as Homo sapiens) [compound 75]
Peptide Presentation on tumor types: BRCA, UEC

608 (LTVAEVQKLLGPHVEGLKAE; listed as Homo sapiens) [compound 608]
Peptide Presentation on tumor types: NSCLC

592 (VRGEVAPDAKSFVLNLG; listed as Homo sapiens) [compound 592]
Peptide Presentation on tumor types: NSCLC, RCC

541 (RLSPAPLKL; listed as Homo sapiens) [compound 541]
Peptide Presentation on tumor types: GBM, NSCLC

638 (LRGLLPVLGQPIIRS; listed as Homo sapiens) [compound 638]
Peptide Presentation on tumor types: NSCLC

116 (VLLDEGAMLLY; listed as Homo sapiens) [compound 116]
Peptide Presentation on tumor types: NSCLC, PACA

129 (APRPASSL; listed as Homo sapiens) [compound 129]
Peptide Presentation on tumor types: BRCA, CRC, NSCLC, OSCAR, SCLC, UEC

363 (TAKTPDATF; listed as Homo sapiens) [compound 363]
Peptide Presentation on tumor types: CCC

12 (KYEKIFEML; listed as Homo sapiens) [compound 12]
Peptide Presentation on tumor types: AML, NSCLC

589 (APDAKSFVLNLGKDSNNL; listed as Homo sapiens) [compound 589]
Peptide Presentation on tumor types: NSCLC

633 (LRGLLPVLGQPIIRSIPQ; listed as Homo sapiens) [compound 633]
Peptide Presentation on tumor types: NSCLC

503 (TVFDKAFTAA; listed as Homo sapiens) [compound 503]
Peptide Presentation on tumor types: NSCLC

668 (AVLPLTVAEVQK; listed as Homo sapiens) [compound 668]
Peptide Presentation on tumor types: BRCA, CRC, GBC, GC, NSCLC, PACA, UEC

260 (GTNTVILEY; listed as Homo sapiens) [compound 260]
Peptide Presentation on tumor types: MEL, PACA, UEC

518 (TSDFPTITV; listed as Homo sapiens) [compound 518]
Peptide Presentation on tumor types: PACA

445 (LHITPGTAY; listed as Homo sapiens) [compound 445]
Peptide Presentation on tumor types: HCC, PRCA

5 (RLLDFINVL; listed as Homo sapiens) [compound 5]
Peptide Presentation on tumor types: UEC

257 (VTADHSHVF; listed as Homo sapiens) [compound 257]
Peptide Presentation on tumor types: UEC

620 (EVQKLLGPHVEG; listed as Homo sapiens) [compound 620]
Peptide Presentation on tumor types: NSCLC

462 (QRMTTQLLL; listed as Homo sapiens) [compound 462]
Peptide Presentation on tumor types: NSCLC, RCC, UEC

467 (MQMQERDTL; listed as Homo sapiens) [compound 467]
Peptide Presentation on tumor types: GEJC, HNSCC, NHL, NSCLC, OSCAR

612 (TVAEVQKLLGPHVEGLK; listed as Homo sapiens) [compound 612]
Peptide Presentation on tumor types: NSCLC

656 (VLGQPIIRSIPQGIVA; listed as Homo sapiens) [compound 656]
Peptide Presentation on tumor types: NSCLC

216 (IMFDDAIERA; listed as Homo sapiens) [compound 216]
Peptide Presentation on tumor types: UEC

174 (AEATARLNVF; listed as Homo sapiens) [compound 174]
Peptide Presentation on tumor types: NSCLC

20 (RMASPVNVK; listed as Homo sapiens) [compound 20]
Peptide Presentation on tumor types: CLL

149 (GPREALSRL; listed as Homo sapiens) [compound 149]
Peptide Presentation on tumor types: AML, BRCA, CCC, CRC, HCC, MEL, NHL, NSCLC, OSCAR, PACA, PRCA, RCC, SCLC, UEC

484 (AWLRSAAA; listed as Homo sapiens) [compound 484]
Peptide Presentation on tumor types: CCC

109 (KTFTIKRFLAK; listed as Homo sapiens) [compound 109]
Peptide Presentation on tumor types: BRCA, CCC, MEL, NHL, NSCLC, OSCAR, SCLC, UEC

415 (REEDAALFKAW; listed as Homo sapiens) [compound 415]
Peptide Presentation on tumor types: BRCA, CLL, CRC, HCC, HNSCC, MEL, NHL, NSCLC, OSCAR, PRCA, UBC, UEC

431 (AEQDPDELNKA; listed as Homo sapiens) [compound 431]
Peptide Presentation on tumor types: CRC, OSCAR, SCLC, UEC

486 (DRFFWLKV; listed as Homo sapiens) [compound 486]
Peptide Presentation on tumor types: NSCLC, SCLC

240 (FSTDTSIVL; listed as Homo sapiens) [compound 240]
Peptide Presentation on tumor types: PACA

677 (IWAVRPQDLDTCDPR; listed as Homo sapiens) [compound 677]
Peptide Presentation on tumor types: NSCLC

429 (REKFIASVI; listed as Homo sapiens) [compound 429]
Peptide Presentation on tumor types: UEC

648 (GLLPVLGQPIIRSIPQGIVAA; listed as Homo sapiens) [compound 648]
Peptide Presentation on tumor types: NSCLC

60 (GLLSLTSTLYL; listed as Homo sapiens) [compound 60]
Peptide Presentation on tumor types: BRCA

295 (YPLRGSSIFGL; listed as Homo sapiens) [compound 295]
Peptide Presentation on tumor types: UEC

188 (AEFAKKQPWW; listed as Homo sapiens) [compound 188]
Peptide Presentation on tumor types: CCC, CLL, CRC, MEL, NHL, NSCLC

593 (GEVAPDAKSFVLNLG; listed as Homo sapiens) [compound 593]
Peptide Presentation on tumor types: NSCLC, RCC
